Measurements taken from patent US7662813B2, “Triazole compounds that modulate HSP90 activity” (Synta Pharmaceuticals Corp., priority 2005, dated 2010).
pIC50: −log10 of the molar value. Some of these results come from one statement about several compounds together.

tested on: Her2; experiment: IC50 for Her2 degradation (Method 2: MV-4-11 cell survival, Cell Counting Kit-8); format: cell-based; settings: Method 2: MV-4-11 cells, 72 hours, read-out: IC50 Range (Her2 degradation)

Q: `CCc1cc(-c2nnc(S)n2-c2ccc(OC)c(N(C)C)c2)c(O)cc1O` [Compound 5, 4-(4-(3-(dimethylamino)-4-methoxyphenyl)-5-mercapto-4H-1,2,4-triazol-3-yl)-6-ethylbenzene-1,3-diol] was tested. Which pIC50 did it give?
A: > 6.00

Q: `CCc1cc(-c2nnc(S)n2-c2ccc(OC)c(N(C)CC)c2)c(O)cc1O` [Compound 4, 4-(4-(3-(N-ethyl-N-methylamino)-4-methoxyphenyl)-5-mercapto-4H-1,2,4-triazol-3-yl)-6-ethylbenzene-1,3-diol] was tested. Which pIC50 did it give?
A: > 6.00

Q: How did the pIC50 turn out when `CCc1cc(-c2nnc(S)n2-c2cccc(N3CCCC3)c2)c(O)cc1O` [Compound 8, 4-ethyl-6-(5-mercapto-4-(3-(pyrrolidin-1-yl)phenyl)-4H-1,2,4-triazol-3-yl)benzene-1,3-diol] was run?
A: > 6.00

Q: With `CCc1cc(-c2nnc(S)n2-c2ccc(OC)c(N(C)C(C)C)c2)c(O)cc1O` [Compound 3, 4-(4-(3-(N-isopropyl-N-methylamino)-4-methoxyphenyl)-5-mercapto-4H-1,2,4-triazol-3-yl)-6-ethylbenzene-1,3-diol] as the compound, how does the pIC50 read?
A: > 6.00

Q: With `CCCN(c1cc(-n2c(S)nnc2-c2cc(CC)c(O)cc2O)ccc1OC)C(C)C` [Compound 2, 4-(4-(3-(N-isopropyl-N-propylamino)-4-methoxyphenyl)-5-mercapto-4H-1,2,4-triazol-3-yl)-6-ethylbenzene-1,3-diol] as the compound, how does the pIC50 read?
A: > 6.00

Q: `CCc1cc(-c2nnc(S)n2-c2ccc(OC)c(N(CC)CC)c2)c(O)cc1O` [Compound 1, 4-(4-(3-(diethylamino)-4-methoxyphenyl)-5-mercapto-4H-1,2,4-triazol-3-yl)-6-ethylbenzene-1,3-diol] was tested. Which pIC50 did it give?
A: > 6.00

Q: With `CCc1cc(-c2nnc(S)n2-c2cccc(N(C)C)c2)c(O)cc1O` [Compound 6, 4-(4-(3-(dimethylamino)phenyl)-5-mercapto-4H-1,2,4-triazol-3-yl)-6 ethylbenzene-1,3-diol] as the compound, how does the pIC50 read?
A: > 6.00
